Measurements as given in PubChem BioAssay AID2284382 (EPA ToxCast).
The entries are a selection whose mix differs from that of the whole data set. Records with an inconclusive call do not appear. The source made the active and inactive calls. The calls were made as follows: active = hit-call score of the fitted dose curve at least 0.9, where 1 is the maximum; inconclusive = response in the unintended direction; inactive = score below 0.9.

test: CCTE_Mundy_HCI_iCellGABA_NOG_NeuriteLength: CCTE's Neurite Outgrowth Assay in iCellGABA cells for Neurite Length, Mundy Lab
Experimental: CCTE_Mundy_HCI_iCellGABA_NOG is a multiplexed, cell-based-readout assay that uses iCell GABANeurons from FUJIFILM Cellular Dynamics, Inc. (FCDI), human GABAergic enriched neurons derived from induced pluripotent stem (iPS) cells, with measurements taken at 50.33 hours after chemical dosing in a microplate: 96-well plate.CCTE_Mundy_HCI_iCellGABA_NOG_NeuriteLength is one of four components of the CCTE_Mundy_HCI_iCellGABA_NOG assay. It measures neurite outgrowth related to neurite length using High Content Imaging of fluorescently labelled markers.Data from the assay component CCTE_Mundy_HCI_iCellGABA_NOG_NeuriteLength was analyzed at the endpoint CCTE_Mundy_HCI_iCellGABA_NOG_NeuriteLength in the positive analysis fitting direction relative to DMSO as the negative control and baseline of activity. Using a type of morphology reporter, loss-of-signal activity can be used to understand developmental effects.
Exposure starts 2 hours post-plating by adding 10 ul of the working solution to 90 ul of media in the wells for a 1/10 dilution. […] A Cellomics ArrayScan VTi HCS Reader is used for automated image acquisition and analysis of neurite outgrowth.

SMILES | AC50
CCOP(=S)(OCC)Oc1cc(C)nc(C(C)C)n1 | active: 69 µM
